Laboratory results: PubChem BioAssay AID602360 (National Center for Advancing Translational Sciences (NCATS), 2012)
“And” between values parts separate entries of the source, which are not always exact repeats. Equal entries are not always repeated. The inconclusive results got no clear call from the source; some entries with a clear call stand among them for comparison. A potency beside an inconclusive call is a rough fit, not a confirmed value. The source made the active and inactive calls. The call rests on the fitted dose curve; in most records, active means well fitted curve in the direction sought with a large enough effect; inconclusive means small, poorly fitted or top-dose-only effect, or another doubt; inactive means no such curve, though single readings can be large or run the other way.

Biological target: Holo-[acyl-carrier-protein] synthase (Bacillus subtilis (strain 168)) (UniProt P96618)
Experiment: qHTS Assay for Inhibitors of Bacillus subtilis AcpS phosphopantetheinyl transferase (PPTase): SAR
Settings: purified B. subtilis AcpS enzyme; Potency: PPTase activity; series mostly up to 57.1 µM; activity change, negative = inhibition: at the top concentration
Text: The covalent attachment of a phosphopantetheinyl (4'-PP) arm to a variety of synthases and other proteins is a key posttranslational protein modification. The 4'-PP is installed on the proteins post-translationally from coenzyme A (CoA) on a conserved serine residue by action of phosphopantetheinyl transferase (PPTase) enzymes. Phosphopantetheinylation is essential for synthase activity, and removal of the PPTase gene precludes natural product synthesis in microorganisms, or in the case of fatty acid biosynthesis, renders the organism unviable. PPTase enzymes belong to a distinct structural superfamily. Within bacteria, these enzymes are grouped into two classes based upon primary structure, the AcpS-Type and Sfp-Type PPTases.
Sfp-type PPTases, corresponding to an activator of surfactin production in Bacillus subtilis, are responsible for modifying type I polyketide and nonribosomal peptide synthases of prokaryotes. Sfp-type PPTases are responsible for the activation of a variety of pathogen-associated virulence factors. Among these compounds are toxins such as mycolactone from Mycobacterium ulcerans, siderophores such as vibriobactin from Vibrio cholerae or mycobactin from Mycobacterium tuberculosis, as well as the mycolic acids which form the waxy cell wall of Mycobacteria. The biosyntheses of these natural products are considered attractive targets for drug design.
In search of small molecule Sfp-PPTase inhibitors, a fluorescence quenching assay was developed for detection of Bacillus subtilis Sfp-PPTase enzymatic activity in a miniaturized high-throughput format. The consensus ybbr acceptor peptide […] was N-terminally labeled with Black Hole Quencher-2 (BHQ-2) and used in combination with rhodamine-labeled coenzyme A as a co-substrate.
This project seeks to identify Sfp-PPTase inhibitors. This assay sought to determine the activity of these compounds with holo-acyl carrier protein synthase (AcpS) from E. coli, the canonical representative of the AcpS-PPTase subgrouping (vide supra). The evaluation utilized the qHTS assay format, with the only change being direct substitution of the enzyme.
NIH Chemical Genomics Center [NCGC]
NIH Molecular Libraries Probe Centers Network [MLPCN]
Assay Submitter (PI): Michale Burkart, University of California, San Diego
The assay was performed in a buffer consisting of 50mM HEPES-Na pH 7.6, 10mM MgCl2, 0.01% Nonidet P-40, and 0.01% BSA. Reagents (3 uL) were dispensed into a 1536-well black solid bottom plate (100 nM AcpS PPTase incolumns 1, 2, 5 through 48; buffer sans enzyme in columns 3 &4). DMSO solution of test articles (23 nL) were transferred via Kalypsys pintool equipped with 1,536-pin array. Following a room temperature incubation (15 min), enzyme reactions were initiated by the addition of substrate (1 uL , final concentration in the plte for rhodamine-CoA and BHQ-2-YbbR 5 uM and 12.5 uM, respectively). The plate was then centrifuged (15 s, 1000 rpm), and the fluorescence intensity recorded on a ViewLux High-throughput CCD imager (Perkin-Elmer, 525 nm excitation and 598 nm emission). The plate was then incubated at room temperature (30 min), after which a second read on the ViewLux was recorded. The fluorescence intensity difference over the 30-minute period was used to calculate the respective reaction rate for each well.

| Compound | Potency | activity change, negative = inhibition |
| --- | --- | --- |
| Cc1ccnc(NC(=S)N2CCN(c3cccc(N(C)C)c3)CC2)c1 | inconclusive: 18.2 µM [inhibitor, partial curve] | – |
| Cc1ccnc(NC(=S)Nc2cccc(C(F)(F)F)c2)c1 | – | inactive: -5.9% |
| COc1ccnc(NC(=S)N2CCN(c3ccc(Cl)cc3Cl)CC2)c1 | inconclusive: 14.5 µM [inhibitor, partial curve] | – |
| Cc1cc(C)nc(NC(=S)N2CCN(c3cc(Br)cc(C(F)(F)F)c3)CC2)c1 | inconclusive: 9.13 µM [inhibitor, partial curve] | – |
| Cc1ccnc(NC(=S)N2CCN(c3cccc(C(F)(F)F)c3)CC2)c1 | inconclusive: 3.63 µM [inhibitor, full curve] | – |
| COc1cccc(NC(=S)N2CCN(c3cc(Cl)cc(Cl)c3)CC2)n1 | – | inactive: 8.03% |
| Cc1ccnc(NC(=S)N2CC3CN(c4ncc(C(F)(F)F)cc4Cl)CC3C2)c1 (stereo not given) | inconclusive: 8.13 µM [inhibitor, full curve] | – |
| Cc1cc(C)nc(NC(=S)N2CCN(c3ncccc3C#N)CC2)c1 | – | inactive: -7.03% |
| S=C(Nc1cc(Cl)ccn1)N1CCN(c2cccc(Cl)c2Cl)CC1 | inconclusive: 25.7 µM [inhibitor, partial curve] | – |
| Cc1ccnc(NC(=S)N2CCCc3ccc(C(F)(F)F)cc32)c1 | – | inactive: 1.85% |
| CSC(Cc1ccc(Cl)cc1)C(=O)Nc1ccc(Cl)cc1C(=O)O (stereo not given) | – | inactive: 1.84% |
| FC(F)(F)c1cc(N2CCN(C(=S)Nc3cc(Cl)ccn3)CC2)cc(C(F)(F)F)c1 | – | inactive: 10.1% |
| CC(Cc1ccccc1)C(=O)Nc1ccc(Cl)cc1C(=O)O (stereo not given) | – | inactive: -11.5% |
| Cc1cc(C)nc(NC(=S)N2CCN(c3ccc(F)c(F)c3F)CC2)c1 | inconclusive: 18.2 µM [inhibitor, partial curve] | – |
| COc1cccc(NC(=S)N2CCN(c3ccc(Cl)c(Cl)c3)CC2)n1 | inconclusive: 9.13 µM [inhibitor, partial curve] | – |
| Cc1cc(C)nc(NC(=S)N2CCN(c3ccc(Cl)cc3Cl)CC2)c1 | inconclusive: 18.2 µM [inhibitor, partial curve] | – |
| Cc1cc(C)nc(NC(=S)N2CCN(c3ccc(Cl)cc3C(F)(F)F)CC2)c1 | inconclusive: 14.5 µM [inhibitor, partial curve] | – |
| Cc1cc(C)nc(NC(=S)N2CCN(c3ccc([N+](=O)[O-])cc3Cl)CC2)c1 | active: 6.46 µM | – |
| FC(F)(F)c1cccc(N2CCN(C(=S)Nc3nccc4ccccc34)CC2)c1 | inconclusive: 4.57 µM [inhibitor, full curve] and inconclusive: 1.82 µM [inhibitor, full curve] | – |
| COc1ccnc(NC(=S)N2CCN(c3ncc(C(F)(F)F)cc3Cl)CC2)c1 | inconclusive: 6.46 µM [inhibitor, full curve] | – |
| Cc1ccnc(N=C(N)N2CCN(c3cccc(C(F)(F)F)c3)CC2)c1 | – | inactive: 15.1% |
| COc1ccnc(NC(=S)N2CCN(c3cccc(Cl)c3Cl)CC2)c1 | inconclusive: 16.2 µM [inhibitor, partial curve] | – |
| Cc1cc(C)nc(NC(=S)N2CCN(c3ccc(Cl)c(Cl)c3)CC2)c1 | inconclusive: 16.2 µM [inhibitor, partial curve] | – |
| Cc1cc(C)nc(NC(=S)N2CC3CN(c4ccc(Cl)cc4C(F)(F)F)CC3C2)c1 (stereo not given) | inconclusive: 8.13 µM [inhibitor, full curve] | – |
| Cc1ccnc(NC(=S)N2CCCN(c3cccc(C(F)(F)F)c3)CC2)c1 | inconclusive: 9.13 µM [inhibitor, partial curve] | – |
| FC(F)(F)c1cccc(N2CCN(C(=S)Nc3cc(C(F)(F)F)ccn3)CC2)c1 | inconclusive: 5.13 µM [inhibitor, partial curve] | – |
| Cc1ccnc(NC(=S)N2CC3CN(c4cccc(C(F)(F)F)c4)CC3C2)c1 (stereo not given) | inconclusive: 5.13 µM [inhibitor, full curve] | – |
| Cc1ccnc(NC(=S)N[C@@H]2CCN(c3cccc(C(F)(F)F)c3)C2)c1 | – | inactive: -1.64% |
| Cc1nc(CN(C)c2ncnc3ccc(-c4ccc5[nH]ncc5c4)cc23)cs1 | – | inactive: 55.2% |
| Cc1ccnc(NC(=S)N2CCN(c3cc(C(F)(F)F)cc(C(F)(F)F)c3)CC2)c1 | active: 4.57 µM | – |

Compounds shown so far with an aryl methoxy group:

| Compound | Potency | activity change, negative = inhibition |
| --- | --- | --- |
| COc1ccnc(NC(=S)N2CCN(c3ccc(Cl)cc3Cl)CC2)c1 | inconclusive: 14.5 µM [inhibitor, partial curve] | – |
| COc1cccc(NC(=S)N2CCN(c3cc(Cl)cc(Cl)c3)CC2)n1 | – | inactive: 8.03% |
| COc1cccc(NC(=S)N2CCN(c3ccc(Cl)c(Cl)c3)CC2)n1 | inconclusive: 9.13 µM [inhibitor, partial curve] | – |
| COc1ccnc(NC(=S)N2CCN(c3ncc(C(F)(F)F)cc3Cl)CC2)c1 | inconclusive: 6.46 µM [inhibitor, full curve] | – |
| COc1ccnc(NC(=S)N2CCN(c3cccc(Cl)c3Cl)CC2)c1 | inconclusive: 16.2 µM [inhibitor, partial curve] | – |
